Measurements published in paper PMC5386752.
No constants are given. Whether binding was seen depends on the method and setting. In cells and extracts the contact can be indirect. Some binding calls cover weakened binding; strength is not graded here.

Tests used:
[1] = target: FLAG-HA-tagged FBXW7, wild type (UniProt Q969H0); test: co-IP; HEK293T cells co-transfected with FLAG-hnRNPK (or mutants) and FLAG-HA-FBXW7 (or WD40 mutant); HA-tagged FBXW7 immunoprecipitated from cell extracts with anti-HA resin, immunoblotting; RIPA lysis buffer; in some panels cells treated with GSK3i IX (10 uM, 10 h), U0126 (10 uM, 2 h) or DMSO
[2] = target: endogenous (native) FBXW7 (human (endogenous in SW1990)) (UniProt Q969H0); test: co-IP; native FBXW7 immunoprecipitated from SW1990 cell extracts with anti-FBXW7 antibody, immunoblotting; rabbit IgG as control; RIPA lysis buffer

Substance | binding [1] | binding [2]
FLAG-tagged hnRNPK (S116A/T120A) (from UniProt P61978 1-463) | no binding | –
FLAG-tagged hnRNPK (heterogeneous nuclear ribonucleoprotein K), wild type (from UniProt P61978 1-463) | binds | –
endogenous hnRNPK (from UniProt P61978 1-463) | – | binds
